{"source": "the supplement of paper PMC6411743", "biological_target": "A0A0A0MT26|P13637 and related entries (UniProt P13637)", "test": "NP40-soluble protein abundance relative to vehicle (solubility fold change) (ratio); higher = more soluble protein in presence of AMP-PNP", "procedure,_shortened": "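Values are fold changes against the detergent-processed vehicle, based on vsn-normalised intensities. Jurkat crude lysate was treated at eight concentrations from 0.1 to 10 mM (10 min at room temperature, then 3 min at 37 °C), solubilised with 0.8% NP40 and benzonase, ultracentrifuged and analysed by TMT-labelled LC-MS/MS over three independent experiments.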", "note": "± gives the standard deviation of the averaged measurements. This is a selection; strong and weak results do not stand in their true shares."}
{"smiles": "Nc1ncnc2c1ncn2[C@@H]1O[C@H](COP(=O)(O)OP(=O)(O)NP(=O)(O)O)[C@@H](O)[C@H]1O", "note": "[adenylyl imidodiphosphate]", "values": [{"measurement": "NP40-soluble protein abundance", "setting": "concentration: 1mM", "value": "1.02 ± 0.032"}, {"measurement": "NP40-soluble protein abundance", "setting": "concentration: 2mM", "value": "1.05 ± 0.022"}, {"measurement": "NP40-soluble protein abundance", "setting": "concentration: 4mM", "value": "0.999 ± 0.044"}, {"measurement": "NP40-soluble protein abundance", "setting": "concentration: 6mM", "value": "0.968 ± 0.012"}, {"measurement": "NP40-soluble protein abundance", "setting": "concentration: 8mM", "value": "0.951 ± 0.026"}, {"measurement": "NP40-soluble protein abundance", "setting": "concentration: 10mM", "value": "0.948 ± 0.035"}]}
